PubChem BioAssay AID504774, Drosophila RNAi Screening Center | 2011

Test: 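Knock-downs that shift viability of MMS-exposed cells relative to untreated ones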 (primary screen)
Cells: Drosophila Kc167 cells
Reagent: long dsRNA against Drosophila genes, about 0.25 µg dsRNA per well
Duration: about 6 days: 3 days knock-down, then 3 days with or without MMS
Challenge: methyl methanesulphonate 0.004% (w/v) for 3 days after knock-down
Detection: 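ATP-dependent luminescence as a measure of live cells in MMS-exposed wells, quantile normalised within each plate, with replicate values also given as a mean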
Scale: mean viability with MMS and viability with MMS: higher = more surviving cells after MMS
In all, the deposit lists about 23,000 reagents; this is a random part of those that have a named target and a result. 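Values are quantile-normalised luminescence on an arbitrary scale; higher means more cells surviving MMS.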 A plus sign joins genes that one reagent is predicted to hit. Further read-outs or replicates are left out here.

With knock-down of CG10862 [DRSC08170] the results were mean viability with MMS 3.56e6; viability with MMS, replicate 1 = 4.09e6.
CG12025 [DRSC08230] scored mean viability with MMS 3.53e6; viability with MMS, replicate 1 = 4.00e6.
After knock-down of Hmx [DRSC15884] the results were mean viability with MMS 3.32e6; viability with MMS, replicate 1 = 3.83e6.
Against Hmx [DRSC16706] the deposit lists mean viability with MMS 3.34e6; viability with MMS, replicate 1 = 3.59e6.
Depletion of Hmx [DRSC22799] gave: mean viability with MMS 3.10e6; viability with MMS, replicate 1 = 3.61e6.
After knock-down of smog [DRSC00334], the record shows mean viability with MMS 3.62e6; viability with MMS, replicate 1 = 4.17e6.
smog [DRSC00335] gave mean viability with MMS 3.09e6; viability with MMS, replicate 1 = 3.46e6.
After knock-down of smog [DRSC23053], the record shows mean viability with MMS 2.99e6; viability with MMS, replicate 1 = 3.24e6.
With knock-down of dap [DRSC07601] the results were mean viability with MMS 3.80e6; viability with MMS, replicate 1 = 4.30e6.
Depletion of sdt [DRSC17555] came out at: mean viability with MMS 3.50e6; viability with MMS, replicate 1 = 4.00e6.
For sdt [DRSC17556], the entry reads mean viability with MMS 3.52e6; viability with MMS, replicate 1 = 4.08e6.
Against sdt [DRSC17860], the values are mean viability with MMS 3.59e6; viability with MMS, replicate 1 = 4.14e6.
For sdt [DRSC17861], the values are mean viability with MMS 3.53e6; viability with MMS, replicate 1 = 4.02e6.
With knock-down of sdt [DRSC18022], the record shows mean viability with MMS 3.46e6; viability with MMS, replicate 1 = 3.93e6.
sdt [DRSC18025] showed mean viability with MMS 2.80e6; viability with MMS, replicate 1 = 3.43e6.
sdt [DRSC18026] gave mean viability with MMS 2.79e6; viability with MMS, replicate 1 = 3.36e6.
Against sdt [DRSC18027] the deposit lists mean viability with MMS 3.49e6; viability with MMS, replicate 1 = 3.92e6.
Against sdt [DRSC18108], the values are mean viability with MMS 3.92e6; viability with MMS, replicate 1 = 4.29e6.
Knock-down of Ku80 [DRSC02699] resulted in: mean viability with MMS 3.51e6; viability with MMS, replicate 1 = 4.06e6.
ACOX1 [DRSC05941] gave mean viability with MMS 3.50e6; viability with MMS, replicate 1 = 3.99e6.
After knock-down of metro [DRSC06341] the results were mean viability with MMS 3.52e6; viability with MMS, replicate 1 = 4.02e6.
Knock-down of metro [DRSC06725] resulted in: mean viability with MMS 3.45e6; viability with MMS, replicate 1 = 3.86e6.
After knock-down of por [DRSC20362], the screen gave mean viability with MMS 3.49e6; viability with MMS, replicate 1 = 3.94e6.
Silencing of Klp98A [DRSC16724] resulted in: mean viability with MMS 3.48e6; viability with MMS, replicate 1 = 3.98e6.
Silencing of Klp98A [DRSC21834] came out at: mean viability with MMS 3.09e6; viability with MMS, replicate 1 = 3.73e6.
Against Pkc53E [DRSC05636], the values are mean viability with MMS 3.64e6; viability with MMS, replicate 1 = 4.08e6.
Knock-down of Pkc53E [DRSC07510] gave: mean viability with MMS 3.59e6; viability with MMS, replicate 1 = 4.11e6.
With knock-down of CG31926 [DRSC00295] the results were mean viability with MMS 3.92e6; viability with MMS, replicate 1 = 4.02e6.
Depletion of Sik3 [DRSC06505] gave: mean viability with MMS 3.61e6; viability with MMS, replicate 1 = 4.16e6.
Against Sik3 [DRSC06771], the entry reads mean viability with MMS 3.44e6; viability with MMS, replicate 1 = 3.87e6.
Silencing of CG44001 + CG33995 [DRSC00853] resulted in: mean viability with MMS 3.47e6; viability with MMS, replicate 1 = 3.84e6.
Depletion of CG44001 + CG33995 [DRSC02898] gave: mean viability with MMS 3.45e6; viability with MMS, replicate 1 = 3.95e6.
Against CG8032 [DRSC16365], the values are mean viability with MMS 3.54e6; viability with MMS, replicate 1 = 4.00e6.
After knock-down of CG31898 [DRSC01019], the record shows mean viability with MMS 3.59e6; viability with MMS, replicate 1 = 4.16e6.
Against Vha44 [DRSC07572], the entry reads mean viability with MMS 3.20e6; viability with MMS, replicate 1 = 3.72e6.
For Vha44 [DRSC07573] the deposit lists mean viability with MMS 3.56e6; viability with MMS, replicate 1 = 3.97e6.
Knock-down of Alp5 [DRSC14269] resulted in: mean viability with MMS 3.61e6; viability with MMS, replicate 1 = 4.02e6.
Gat [DRSC17144] scored mean viability with MMS 3.65e6; viability with MMS, replicate 1 = 4.19e6.
For EcR [DRSC04906], the entry reads mean viability with MMS 3.61e6; viability with MMS, replicate 1 = 4.17e6.
Against EcR [DRSC04910], the entry reads mean viability with MMS 3.51e6; viability with MMS, replicate 1 = 4.14e6.
Qsox4 [DRSC14224] showed mean viability with MMS 3.48e6; viability with MMS, replicate 1 = 3.91e6.
Silencing of Nacalpha [DRSC07477] came out at: mean viability with MMS 3.23e6; viability with MMS, replicate 1 = 3.72e6.
With knock-down of CG3649 [DRSC04400], the record shows mean viability with MMS 3.70e6; viability with MMS, replicate 1 = 4.48e6.
CR41501 [DRSC07785] scored mean viability with MMS 3.52e6; viability with MMS, replicate 1 = 4.02e6.
CG13654 [DRSC14654] scored mean viability with MMS 3.63e6; viability with MMS, replicate 1 = 4.13e6.

3 entries from above, showing only “mean viability with MMS”:
Vha44 [DRSC07572]	3.20e6
Vha44 [DRSC07573]	3.56e6
Alp5 [DRSC14269]	3.61e6
